Results published in publication PMC11361374.
These are yes or no findings as the source states them, for the method shown. Binding seen in cells or lysates may run through a third protein. Some entries that bind do so weakly or less than the wild type.

By UniProt entry, the sequences of proteins in these tests, tags left out. Residues count along the entry.
UniProt Q8NC56: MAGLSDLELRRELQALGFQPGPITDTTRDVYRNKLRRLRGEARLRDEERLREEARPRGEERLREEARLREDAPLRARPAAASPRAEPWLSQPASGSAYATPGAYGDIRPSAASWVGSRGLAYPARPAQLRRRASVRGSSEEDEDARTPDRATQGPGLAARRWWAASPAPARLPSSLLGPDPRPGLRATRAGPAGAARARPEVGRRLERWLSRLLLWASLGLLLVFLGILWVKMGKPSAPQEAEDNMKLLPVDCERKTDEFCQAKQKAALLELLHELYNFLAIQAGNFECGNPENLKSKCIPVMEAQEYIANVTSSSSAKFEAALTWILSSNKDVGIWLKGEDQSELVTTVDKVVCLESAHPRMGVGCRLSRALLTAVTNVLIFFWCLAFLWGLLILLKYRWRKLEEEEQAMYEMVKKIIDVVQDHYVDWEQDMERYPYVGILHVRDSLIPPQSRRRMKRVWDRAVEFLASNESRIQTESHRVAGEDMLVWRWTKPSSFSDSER
UniProt P02545, residues 1-646: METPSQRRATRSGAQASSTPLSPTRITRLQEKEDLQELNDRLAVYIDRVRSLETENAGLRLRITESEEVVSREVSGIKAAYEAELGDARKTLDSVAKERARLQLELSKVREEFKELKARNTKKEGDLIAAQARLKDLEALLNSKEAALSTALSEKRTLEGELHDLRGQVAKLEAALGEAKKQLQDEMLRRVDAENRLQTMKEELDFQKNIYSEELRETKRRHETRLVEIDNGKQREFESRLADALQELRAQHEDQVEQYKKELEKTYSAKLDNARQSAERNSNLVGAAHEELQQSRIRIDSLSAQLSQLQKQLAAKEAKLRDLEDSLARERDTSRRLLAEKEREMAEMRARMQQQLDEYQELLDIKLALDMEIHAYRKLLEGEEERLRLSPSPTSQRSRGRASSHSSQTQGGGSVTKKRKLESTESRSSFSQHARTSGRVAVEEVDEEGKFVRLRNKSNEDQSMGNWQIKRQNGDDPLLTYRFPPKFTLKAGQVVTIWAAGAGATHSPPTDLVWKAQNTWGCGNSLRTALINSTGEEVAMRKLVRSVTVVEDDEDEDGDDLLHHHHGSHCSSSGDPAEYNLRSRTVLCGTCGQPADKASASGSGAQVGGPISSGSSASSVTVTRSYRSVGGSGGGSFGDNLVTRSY
UniProt Q13216: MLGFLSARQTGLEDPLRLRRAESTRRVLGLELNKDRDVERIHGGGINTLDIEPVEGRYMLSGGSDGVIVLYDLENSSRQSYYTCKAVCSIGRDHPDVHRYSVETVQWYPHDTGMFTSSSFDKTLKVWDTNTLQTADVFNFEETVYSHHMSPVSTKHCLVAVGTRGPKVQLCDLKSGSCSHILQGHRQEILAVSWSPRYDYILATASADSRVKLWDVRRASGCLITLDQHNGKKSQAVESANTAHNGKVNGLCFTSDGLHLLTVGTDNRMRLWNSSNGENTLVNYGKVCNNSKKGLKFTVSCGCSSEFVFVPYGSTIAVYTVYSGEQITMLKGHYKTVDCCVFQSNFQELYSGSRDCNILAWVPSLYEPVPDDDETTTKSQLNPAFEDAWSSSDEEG

Columns and labels:
[1] = target: LEMD2-GFP (UniProt Q8NC56); test: co-IP; GFP pulldown (GFP-Trap Magnetic Agarose) of LEMD2-GFP from lysates of WT(HA-CSA) cells overexpressing Flag-CSA + LEMD2-GFP; control GFP + Flag-CSA; 0.5% NP-40, 150 mM NaCl lysis buffer plus RIPA extract of the pellet; 4 h at 4°C; immunoblot
[2] = target: lamin A/C (human (endogenous in CS3BE patient-derived fibroblasts)) (UniProt P02545); test: proximity ligation; Duolink PLA on fixed, permeabilised WT(HA-CSA) and CS-A cells with mouse anti-lamin A/C and rabbit anti-LEMD2; single antibodies as negative controls; foci per nucleus counted

binding [1] | binding [2] | Substance
binds | – | Flag-CSA (from UniProt Q13216 1-396)
– | binds | LEMD2 (from UniProt Q8NC56 1-503)
binds | – | HA-CSA (from UniProt Q13216 1-396)
